Reference: the supplement of paper PMC10849652
This is one part of the list.

Sequences of proteins named here, by UniProt entry; tags and fusion partners are left off. A change or cut given only in a name is not applied to a line headed by its entry.
UniProt Q9ULX6: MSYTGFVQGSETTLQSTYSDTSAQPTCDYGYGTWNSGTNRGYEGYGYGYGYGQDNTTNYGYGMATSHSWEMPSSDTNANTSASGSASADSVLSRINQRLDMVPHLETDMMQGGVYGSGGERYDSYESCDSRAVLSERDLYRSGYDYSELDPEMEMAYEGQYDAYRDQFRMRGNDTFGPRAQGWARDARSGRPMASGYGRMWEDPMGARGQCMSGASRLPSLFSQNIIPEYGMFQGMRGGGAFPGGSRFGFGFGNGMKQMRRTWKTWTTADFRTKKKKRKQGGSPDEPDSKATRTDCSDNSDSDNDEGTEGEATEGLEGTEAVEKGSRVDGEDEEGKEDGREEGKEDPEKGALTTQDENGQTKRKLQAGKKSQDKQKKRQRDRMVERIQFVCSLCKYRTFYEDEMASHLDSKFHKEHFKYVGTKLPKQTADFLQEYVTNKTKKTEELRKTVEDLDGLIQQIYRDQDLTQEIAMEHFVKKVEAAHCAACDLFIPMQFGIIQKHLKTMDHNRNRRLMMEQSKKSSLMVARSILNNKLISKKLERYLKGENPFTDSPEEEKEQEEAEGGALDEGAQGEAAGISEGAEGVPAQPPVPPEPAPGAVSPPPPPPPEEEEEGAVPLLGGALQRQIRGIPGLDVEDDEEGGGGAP
UniProt P55265: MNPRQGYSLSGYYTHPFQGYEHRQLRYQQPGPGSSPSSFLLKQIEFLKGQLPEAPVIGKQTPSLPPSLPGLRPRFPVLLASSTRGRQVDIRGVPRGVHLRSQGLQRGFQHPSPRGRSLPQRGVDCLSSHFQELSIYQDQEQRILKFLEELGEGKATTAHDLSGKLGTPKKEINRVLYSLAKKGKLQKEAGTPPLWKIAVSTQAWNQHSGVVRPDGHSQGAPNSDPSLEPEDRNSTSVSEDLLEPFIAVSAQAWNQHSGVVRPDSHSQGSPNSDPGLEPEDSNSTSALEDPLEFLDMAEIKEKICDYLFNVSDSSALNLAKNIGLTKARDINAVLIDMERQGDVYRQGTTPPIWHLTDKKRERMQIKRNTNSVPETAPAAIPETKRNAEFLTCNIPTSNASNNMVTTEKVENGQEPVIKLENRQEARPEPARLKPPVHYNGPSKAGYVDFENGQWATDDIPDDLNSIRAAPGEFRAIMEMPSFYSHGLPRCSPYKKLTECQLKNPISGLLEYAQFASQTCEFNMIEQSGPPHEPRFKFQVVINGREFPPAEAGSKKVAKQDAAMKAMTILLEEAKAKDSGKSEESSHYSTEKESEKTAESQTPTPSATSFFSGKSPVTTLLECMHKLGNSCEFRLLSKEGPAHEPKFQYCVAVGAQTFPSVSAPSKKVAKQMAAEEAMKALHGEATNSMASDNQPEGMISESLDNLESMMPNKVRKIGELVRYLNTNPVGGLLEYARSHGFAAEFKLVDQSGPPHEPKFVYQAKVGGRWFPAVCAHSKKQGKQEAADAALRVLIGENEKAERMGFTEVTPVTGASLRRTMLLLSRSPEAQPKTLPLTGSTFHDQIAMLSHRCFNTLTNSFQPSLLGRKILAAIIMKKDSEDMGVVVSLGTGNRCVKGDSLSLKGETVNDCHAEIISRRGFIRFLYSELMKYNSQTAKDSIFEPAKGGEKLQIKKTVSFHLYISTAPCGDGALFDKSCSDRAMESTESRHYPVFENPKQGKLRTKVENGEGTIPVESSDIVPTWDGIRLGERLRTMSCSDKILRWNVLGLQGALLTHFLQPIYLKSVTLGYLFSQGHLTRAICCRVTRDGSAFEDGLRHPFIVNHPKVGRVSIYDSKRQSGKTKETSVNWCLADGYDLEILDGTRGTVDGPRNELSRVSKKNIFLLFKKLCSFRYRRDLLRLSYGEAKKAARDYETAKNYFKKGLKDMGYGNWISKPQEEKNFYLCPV
UniProt P07311: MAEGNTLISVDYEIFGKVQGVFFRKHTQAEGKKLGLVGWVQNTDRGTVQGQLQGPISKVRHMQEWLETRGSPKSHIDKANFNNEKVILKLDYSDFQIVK
UniProt Q99996, whole entry, looked up: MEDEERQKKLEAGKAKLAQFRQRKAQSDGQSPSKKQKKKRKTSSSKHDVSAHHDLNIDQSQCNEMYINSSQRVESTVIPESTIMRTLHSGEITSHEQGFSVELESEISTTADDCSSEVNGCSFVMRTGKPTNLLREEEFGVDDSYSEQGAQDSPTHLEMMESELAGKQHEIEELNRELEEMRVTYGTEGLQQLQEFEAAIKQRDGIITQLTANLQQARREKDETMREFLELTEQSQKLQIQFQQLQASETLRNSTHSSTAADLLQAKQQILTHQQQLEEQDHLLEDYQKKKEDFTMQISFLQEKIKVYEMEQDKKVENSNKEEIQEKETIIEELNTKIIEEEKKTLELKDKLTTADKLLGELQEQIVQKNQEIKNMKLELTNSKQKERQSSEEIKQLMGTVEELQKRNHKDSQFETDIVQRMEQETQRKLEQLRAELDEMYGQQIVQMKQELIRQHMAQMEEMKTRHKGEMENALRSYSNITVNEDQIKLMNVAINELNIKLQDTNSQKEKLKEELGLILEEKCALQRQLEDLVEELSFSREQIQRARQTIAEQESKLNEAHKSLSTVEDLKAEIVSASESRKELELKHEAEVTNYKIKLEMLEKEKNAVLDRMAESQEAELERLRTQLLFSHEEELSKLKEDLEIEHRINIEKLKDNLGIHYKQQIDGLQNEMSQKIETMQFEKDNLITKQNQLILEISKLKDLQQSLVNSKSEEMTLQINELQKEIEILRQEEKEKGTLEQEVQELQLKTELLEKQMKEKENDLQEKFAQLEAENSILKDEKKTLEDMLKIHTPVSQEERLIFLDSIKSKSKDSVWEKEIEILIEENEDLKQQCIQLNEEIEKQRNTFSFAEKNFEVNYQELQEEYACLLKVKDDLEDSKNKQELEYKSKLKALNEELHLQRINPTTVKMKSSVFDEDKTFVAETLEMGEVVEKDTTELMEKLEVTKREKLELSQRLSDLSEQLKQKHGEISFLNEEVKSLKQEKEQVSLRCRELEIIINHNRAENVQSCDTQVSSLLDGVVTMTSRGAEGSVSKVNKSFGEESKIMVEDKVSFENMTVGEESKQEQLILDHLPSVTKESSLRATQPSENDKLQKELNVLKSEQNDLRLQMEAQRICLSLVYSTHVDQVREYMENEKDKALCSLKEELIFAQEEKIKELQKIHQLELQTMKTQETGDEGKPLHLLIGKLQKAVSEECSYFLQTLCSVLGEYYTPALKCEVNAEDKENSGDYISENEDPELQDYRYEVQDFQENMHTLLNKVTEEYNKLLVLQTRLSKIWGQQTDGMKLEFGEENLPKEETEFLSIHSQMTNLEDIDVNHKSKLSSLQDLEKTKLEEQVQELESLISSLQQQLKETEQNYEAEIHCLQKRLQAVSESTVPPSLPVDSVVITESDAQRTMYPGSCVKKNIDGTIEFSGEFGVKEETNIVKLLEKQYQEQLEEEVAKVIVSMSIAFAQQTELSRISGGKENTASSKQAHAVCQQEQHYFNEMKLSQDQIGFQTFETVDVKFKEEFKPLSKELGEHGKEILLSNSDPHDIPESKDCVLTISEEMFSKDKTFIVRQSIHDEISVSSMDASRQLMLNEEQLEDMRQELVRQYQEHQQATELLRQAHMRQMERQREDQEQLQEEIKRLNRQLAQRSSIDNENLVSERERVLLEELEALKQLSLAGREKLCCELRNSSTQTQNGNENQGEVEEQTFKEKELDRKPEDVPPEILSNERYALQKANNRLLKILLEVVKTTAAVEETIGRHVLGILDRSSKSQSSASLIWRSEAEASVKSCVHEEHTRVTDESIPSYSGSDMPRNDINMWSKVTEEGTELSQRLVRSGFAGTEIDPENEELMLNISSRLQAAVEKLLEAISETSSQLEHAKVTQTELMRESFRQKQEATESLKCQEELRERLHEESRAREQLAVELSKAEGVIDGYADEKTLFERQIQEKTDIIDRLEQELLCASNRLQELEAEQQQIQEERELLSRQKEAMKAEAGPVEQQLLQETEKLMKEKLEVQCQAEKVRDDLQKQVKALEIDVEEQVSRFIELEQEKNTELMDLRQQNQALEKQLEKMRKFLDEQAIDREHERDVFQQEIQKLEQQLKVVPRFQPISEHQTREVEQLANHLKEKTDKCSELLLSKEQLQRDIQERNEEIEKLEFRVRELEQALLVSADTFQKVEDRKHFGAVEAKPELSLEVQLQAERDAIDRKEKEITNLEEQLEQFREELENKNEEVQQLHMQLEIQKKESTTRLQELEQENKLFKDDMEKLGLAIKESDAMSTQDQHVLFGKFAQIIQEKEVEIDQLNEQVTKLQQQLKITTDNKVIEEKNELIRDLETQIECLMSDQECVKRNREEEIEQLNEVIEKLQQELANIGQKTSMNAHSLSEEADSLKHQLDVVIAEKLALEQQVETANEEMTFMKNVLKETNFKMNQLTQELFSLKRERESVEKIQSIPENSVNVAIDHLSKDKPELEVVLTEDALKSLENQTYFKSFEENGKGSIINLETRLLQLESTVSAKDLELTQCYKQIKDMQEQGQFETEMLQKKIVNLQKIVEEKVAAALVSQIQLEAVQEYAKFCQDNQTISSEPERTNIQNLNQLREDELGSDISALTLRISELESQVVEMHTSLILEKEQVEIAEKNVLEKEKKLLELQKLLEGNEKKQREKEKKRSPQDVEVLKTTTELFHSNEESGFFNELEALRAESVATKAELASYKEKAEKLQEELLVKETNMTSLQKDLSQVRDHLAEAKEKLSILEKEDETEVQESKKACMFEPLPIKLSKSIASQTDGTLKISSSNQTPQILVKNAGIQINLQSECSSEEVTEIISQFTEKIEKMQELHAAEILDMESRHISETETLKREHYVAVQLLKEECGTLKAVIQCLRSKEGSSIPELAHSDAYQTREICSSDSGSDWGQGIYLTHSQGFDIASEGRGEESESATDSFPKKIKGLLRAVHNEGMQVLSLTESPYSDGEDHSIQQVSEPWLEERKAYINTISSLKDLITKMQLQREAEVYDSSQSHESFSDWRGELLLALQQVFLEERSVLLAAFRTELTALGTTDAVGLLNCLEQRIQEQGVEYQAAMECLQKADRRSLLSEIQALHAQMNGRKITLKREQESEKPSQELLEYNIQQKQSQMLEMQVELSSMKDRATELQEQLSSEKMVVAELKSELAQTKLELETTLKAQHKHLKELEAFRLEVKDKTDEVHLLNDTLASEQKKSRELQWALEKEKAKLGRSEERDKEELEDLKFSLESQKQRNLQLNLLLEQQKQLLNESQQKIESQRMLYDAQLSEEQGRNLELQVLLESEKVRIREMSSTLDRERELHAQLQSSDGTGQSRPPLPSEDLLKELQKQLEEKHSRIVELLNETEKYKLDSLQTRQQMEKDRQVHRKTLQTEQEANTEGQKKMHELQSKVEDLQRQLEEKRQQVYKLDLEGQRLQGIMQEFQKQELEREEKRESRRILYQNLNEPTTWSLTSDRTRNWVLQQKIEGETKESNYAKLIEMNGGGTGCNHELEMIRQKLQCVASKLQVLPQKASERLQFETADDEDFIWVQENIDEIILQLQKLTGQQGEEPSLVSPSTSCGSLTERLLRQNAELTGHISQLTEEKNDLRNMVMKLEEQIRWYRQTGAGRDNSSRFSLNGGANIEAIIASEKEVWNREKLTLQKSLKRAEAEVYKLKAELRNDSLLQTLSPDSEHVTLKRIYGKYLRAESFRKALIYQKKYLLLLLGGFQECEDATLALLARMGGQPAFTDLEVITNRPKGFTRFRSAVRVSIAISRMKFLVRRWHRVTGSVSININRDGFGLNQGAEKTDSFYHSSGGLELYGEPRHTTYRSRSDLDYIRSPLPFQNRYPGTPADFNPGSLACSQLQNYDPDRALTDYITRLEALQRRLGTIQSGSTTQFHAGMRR
UniProt Q96HN2, whole entry, looked up: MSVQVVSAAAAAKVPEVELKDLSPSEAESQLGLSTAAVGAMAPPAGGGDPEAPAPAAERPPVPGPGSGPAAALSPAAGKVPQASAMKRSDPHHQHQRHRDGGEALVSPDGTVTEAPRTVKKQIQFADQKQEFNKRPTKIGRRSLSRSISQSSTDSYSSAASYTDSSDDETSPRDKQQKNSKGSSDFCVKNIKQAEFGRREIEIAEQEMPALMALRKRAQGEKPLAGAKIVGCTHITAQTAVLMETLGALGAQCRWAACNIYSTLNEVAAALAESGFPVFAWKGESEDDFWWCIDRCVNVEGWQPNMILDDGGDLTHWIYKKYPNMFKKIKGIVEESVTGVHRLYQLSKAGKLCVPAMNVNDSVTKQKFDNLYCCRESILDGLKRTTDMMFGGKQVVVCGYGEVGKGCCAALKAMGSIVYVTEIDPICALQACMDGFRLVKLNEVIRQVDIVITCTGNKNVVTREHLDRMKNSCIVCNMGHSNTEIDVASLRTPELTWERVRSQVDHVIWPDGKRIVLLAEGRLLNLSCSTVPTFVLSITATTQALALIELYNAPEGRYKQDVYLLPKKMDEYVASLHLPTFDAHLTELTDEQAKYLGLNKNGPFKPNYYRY

What was measured:
Experiment in all cases: log2 fold change, soluble protein after heating vs DMSO (PISA); higher = thermal stabilisation; K562 lysate, 10 uM; active = over 0.2 and 3.5 SD of the protein, either way, in both replicates (recomputed)
[1] = compound: NCC(=O)Nc1ccc(-n2nc(C(F)(F)F)cc2-c2ccc3c(ccc4ccccc43)c2)cc1
Procedure, shortened: (§1)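 Soluble protein was defined as the supernatant remaining after 21,000xg for 90 min, following pooling of heated aliquots and adjustment to 0.5% NP-40 at 4°C. Before that, crude K562 extract at 1 mg/mL protein in PBS pH 7.4 with 1 mM MgCl2 was treated with 10 μM compound for 30 min and heated for 3 min across 48°C-58°C. Quantification used TMTpro 16plex LC-MS/MS with channel sums equalised, and values are log-two fold changes in thermal stability relative to solvent controls from duplicates.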

vorinostat = compound: O=C(CCCCCCC(=O)Nc1ccccc1)NO [vorinostat]
Procedure, shortened: as §1

silmitasertib = compound: O=C(O)c1ccc2c(c1)nc(Nc1cccc(Cl)c1)c1ccncc12 [silmitasertib]
Procedure, shortened: as §1

[2] = compound: O=C1NC(=O)C(c2cnc3ccccn23)=C1c1cn2c3c(cc(F)cc13)CN(C(=O)N1CCCCC1)CC2
Procedure, shortened: as §1

entospletinib = compound: c1cn2cc(-c3ccc4cn[nH]c4c3)nc(Nc3ccc(N4CCOCC4)cc3)c2n1 [entospletinib]
Procedure, shortened: as §1

Row | Target | log2 fold change [1] | log2 fold change (vorinostat) | log2 fold change (silmitasertib) | log2 fold change [2] | log2 fold change (entospletinib)
1 | AK1 (UniProt P00568) | inactive: 0.005 | inactive: 0.075 | inactive: 0.001 | inactive: -0.001 | inactive: 0.022
2 | ACTN4 (UniProt O43707) | inactive: 0.016 | inactive: 0.139 | inactive: -0.027 | inactive: 0.003 | inactive: 0.001
3 | ADPGK (UniProt Q9BRR6) | inactive: 0.014 | inactive: 0.153 | inactive: -0.108 | inactive: -0.029 | inactive: -0.041
4 | ACOT9 isoform 4 (UniProt Q9Y305) | inactive: -0.027 | inactive: -0.185 | inactive: 0.021 | inactive: -0.049 | inactive: 0.016
5 | AGPAT1 (UniProt Q99943) | inactive: -0.027 | active: -0.27 | inactive: 0.106 | inactive: -0.029 | inactive: 0.003
6 | AGFG1 isoform 4 (UniProt P52594) | inactive: -0.001 | inactive: 0.101 | inactive: -0.029 | inactive: -0.056 | inactive: -0.023
7 | AGFG2 (UniProt O95081) | inactive: 0.11 | inactive: 0.065 | inactive: 0.141 | inactive: -0.16 | inactive: -0.022
8 | AKAP8L (UniProt Q9ULX6) | inactive: -0.045 | inactive: -0.213 | inactive: -0.001 | inactive: -0.078 | inactive: -0.019
9 | ADIPOR1 (UniProt Q96A54) | inactive: -0.114 | inactive: 0.124 | inactive: -0.009 | inactive: -0.049 | inactive: 0.041
10 | AKAP11 (UniProt Q9UKA4) | inactive: -0.066 | inactive: -0.164 | inactive: 0.019 | inactive: -0.057 | inactive: 0.015
11 | AFDN isoform 1 (UniProt P55196) | inactive: 0.024 | inactive: -0.115 | inactive: -0.001 | inactive: -0.032 | inactive: 0.013
12 | AHCY (UniProt P23526) | inactive: -0.018 | inactive: -0.027 | inactive: 0.029 | inactive: -0.004 | inactive: 0.024
13 | ACTB, A0A2R8Y793 | inactive: 0.035 | inactive: -0.128 | inactive: 0.012 | inactive: 0.022 | inactive: -0.019
14 | ACTN1 isoform 3 (UniProt P12814) | inactive: -0.008 | inactive: 0.097 | inactive: -0.005 | inactive: 0.002 | inactive: 0.027
15 | ADAR isoform 4 (UniProt P55265) | inactive: -0.029 | active: -0.35 | inactive: 0.019 | inactive: -0.031 | inactive: 0.022
16 | ACYP1 (UniProt P07311) | inactive: -0.015 | inactive: 0.127 | inactive: -0.028 | inactive: -0.002 | inactive: 0.008
17 | ADAT2 (UniProt Q7Z6V5) | inactive: -0.051 | inactive: -0.065 | inactive: -0.028 | inactive: 0.037 | inactive: 0.055
18 | AFDN (UniProt J3KN01) | inactive: 0.006 | inactive: -0.053 | inactive: 0.022 | inactive: -0.028 | inactive: -0.013
19 | AGPAT2 (UniProt O15120) | inactive: -0.234 | inactive: 0.104 | inactive: -0.026 | inactive: -0.052 | inactive: 0.063
20 | AIDA (UniProt Q96BJ3) | inactive: 0.077 | inactive: 0.099 | inactive: -0.001 | inactive: -0.016 | inactive: -0.001
21 | ACTR2 (UniProt P61160) | inactive: 0.012 | inactive: 0.108 | inactive: 0.007 | inactive: 0.015 | inactive: -0.003
22 | ADD1 isoform 3 (UniProt P35611) | inactive: -0.024 | inactive: 0.048 | inactive: -0.012 | inactive: -0.022 | inactive: -0.014
23 | AGRN (UniProt O00468) | inactive: 0.001 | inactive: 0.129 | inactive: -0.041 | inactive: -0.034 | inactive: 0.049
24 | ADO (UniProt Q96SZ5) | inactive: 0.021 | inactive: -0.058 | inactive: 0.073 | inactive: -0.014 | inactive: 0.025
25 | ACTR3B (UniProt Q9P1U1) | inactive: 0.044 | inactive: 0.042 | inactive: 0.047 | inactive: 0.118 | inactive: -0.036
26 | AIFM2 (UniProt Q9BRQ8) | inactive: -0.014 | inactive: -0.261 | inactive: -0.015 | inactive: 0.188 | inactive: 0.003
27 | ACTL8 (UniProt Q9H568) | inactive: -0.011 | inactive: 0.091 | inactive: 0.065 | inactive: 0.018 | inactive: -0.082

5 records picked at random from the list so far, as already listed:
Row | Target | log2 fold change [1] | log2 fold change (vorinostat) | log2 fold change (silmitasertib) | log2 fold change [2] | log2 fold change (entospletinib)
1 | AK1 (UniProt P00568) | inactive: 0.005 | inactive: 0.075 | inactive: 0.001 | inactive: -0.001 | inactive: 0.022
14 | ACTN1 isoform 3 (UniProt P12814) | inactive: -0.008 | inactive: 0.097 | inactive: -0.005 | inactive: 0.002 | inactive: 0.027
13 | ACTB, A0A2R8Y793 | inactive: 0.035 | inactive: -0.128 | inactive: 0.012 | inactive: 0.022 | inactive: -0.019
11 | AFDN isoform 1 (UniProt P55196) | inactive: 0.024 | inactive: -0.115 | inactive: -0.001 | inactive: -0.032 | inactive: 0.013
7 | AGFG2 (UniProt O95081) | inactive: 0.11 | inactive: 0.065 | inactive: 0.141 | inactive: -0.16 | inactive: -0.022

Carrying on.

Row | Target | log2 fold change [1] | log2 fold change (vorinostat) | log2 fold change (silmitasertib) | log2 fold change [2] | log2 fold change (entospletinib)
28 | ADH5 (UniProt P11766) | inactive: 0.014 | inactive: 0.113 | inactive: -0.015 | inactive: -0.001 | inactive: 0.009
29 | ACP1 isoform 2 (UniProt P24666) | inactive: -0.01 | inactive: -0.175 | inactive: 0.03 | inactive: 0.023 | inactive: 0.035
30 | ADAM9 (UniProt Q13443) | inactive: 0.003 | inactive: 0.193 | inactive: 0.002 | inactive: -0.004 | inactive: -0.064
31 | ACOT7 isoform 7 (UniProt O00154) | inactive: 0.006 | inactive: 0.073 | inactive: 0.025 | inactive: 0.01 | inactive: 0
32 | ADAL (UniProt Q6DHV7) | inactive: 0.006 | inactive: 0.189 | inactive: -0.041 | inactive: -0.039 | inactive: -0.01
33 | ACSL4 (UniProt O60488) | inactive: 0.137 | active: -0.321 | inactive: 0.066 | inactive: -0.002 | inactive: 0.014
34 | AKAP9 (UniProt Q99996) | inactive: 0.071 | inactive: -0.098 | inactive: 0.003 | inactive: 0.009 | inactive: -0.013
35 | AK5 (UniProt Q9Y6K8) | inactive: -0.089 | inactive: 0.093 | inactive: -0.035 | inactive: 0.05 | inactive: 0.029
36 | AKR1B1 (UniProt P15121) | inactive: -0.018 | active: 0.24 | inactive: -0.004 | inactive: -0.026 | inactive: -0.065
37 | ADIPOR2 (UniProt Q86V24) | inactive: 0.026 | inactive: 0.175 | inactive: 0.007 | inactive: 0.042 | inactive: 0
38 | AFF1 isoform 2 (UniProt P51825) | inactive: 0.019 | inactive: -0.074 | inactive: -0.046 | inactive: -0.046 | inactive: -0.064
39 | ACP1 (UniProt P24666) | inactive: 0.008 | inactive: -0.085 | inactive: 0.08 | inactive: 0.015 | inactive: -0.041
40 | ACTBL2 (UniProt Q562R1) | inactive: -0.116 | inactive: -0.154 | inactive: 0.039 | inactive: 0.019 | inactive: -0.083
41 | ACTR3 (UniProt P61158) | inactive: -0.018 | inactive: 0.064 | inactive: 0.018 | inactive: -0.04 | inactive: 0.042
42 | AHCYL2 (UniProt Q96HN2) | inactive: -0.003 | inactive: -0.113 | inactive: 0.025 | inactive: -0.013 | inactive: 0.027
43 | AGGF1 (UniProt Q8N302) | inactive: 0.135 | inactive: 0.059 | inactive: -0.06 | inactive: 0 | inactive: -0.015
44 | ACTR1A (UniProt P61163) | inactive: 0.003 | inactive: 0.104 | inactive: -0.024 | inactive: 0.048 | inactive: -0.007
45 | AGK (UniProt Q53H12) | inactive: -0.06 | inactive: 0.033 | inactive: 0.037 | inactive: 0.058 | inactive: 0.032
46 | AGO3 (UniProt Q9H9G7) | inactive: 0.017 | inactive: -0.015 | inactive: -0.022 | inactive: -0.034 | inactive: -0.043
47 | ADNP (UniProt Q9H2P0) | inactive: 0.049 | inactive: -0.025 | inactive: 0.003 | inactive: 0.018 | inactive: -0.07
48 | ACTL6A (UniProt O96019) | inactive: 0.005 | inactive: 0 | inactive: -0.005 | inactive: -0.027 | inactive: 0.003
49 | ADA (UniProt P00813) | inactive: 0.035 | inactive: 0.175 | inactive: -0.012 | inactive: -0.116 | inactive: 0.002
50 | AK3 (UniProt Q9UIJ7) | inactive: -0.004 | inactive: 0.134 | inactive: -0.028 | inactive: -0.015 | inactive: 0.006
51 | ADSS1 (UniProt Q8N142) | inactive: 0.055 | inactive: -0.068 | inactive: -0.022 | inactive: -0.015 | inactive: -0.02
52 | AGA (UniProt P20933) | inactive: 0.008 | inactive: 0.258 | inactive: 0.053 | inactive: -0.042 | inactive: 0.024
53 | ACSF3 (UniProt Q4G176) | inactive: -0.075 | inactive: -0.105 | inactive: 0.028 | inactive: -0.016 | inactive: 0.004
